Results published in publication PMC11584840.
Results are given in words; binding and its absence hold for the method and conditions named. In cells and extracts the contact can be indirect. Some binding calls cover weakened binding; strength is not graded here.

Amino acid sequences for entries named in this document (tags omitted).
UniProt P28482: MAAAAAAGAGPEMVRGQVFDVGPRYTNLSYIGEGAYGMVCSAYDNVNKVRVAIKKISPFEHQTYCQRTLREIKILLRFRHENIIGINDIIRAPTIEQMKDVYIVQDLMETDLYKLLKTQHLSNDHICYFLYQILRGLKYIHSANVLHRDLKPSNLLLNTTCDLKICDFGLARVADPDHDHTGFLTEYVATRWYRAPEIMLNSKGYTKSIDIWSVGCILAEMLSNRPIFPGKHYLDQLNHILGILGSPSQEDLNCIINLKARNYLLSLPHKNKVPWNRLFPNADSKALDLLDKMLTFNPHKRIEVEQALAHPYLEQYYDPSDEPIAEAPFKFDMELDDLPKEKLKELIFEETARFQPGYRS

Target: FLAG-ERK2 (UniProt P28482)
Test: co-IP; HEK293T cells transfected with the indicated plasmids; IP with anti-Flag from whole cell lysates (overnight, 4 °C, protein A/G agarose), Western blot with anti-SENP2

- binding: binds
B1: SENP2 (enzyme, UniProt Q9HC62 1-589)
chain: MYRWLVRILGTIFRFCDRSVPPARALLKRRRSDSTLFSTVDTDEIPAKRPRLDCFIHQVKNSLYNAASLFGFPFQLTTKPMVTSACNGTRNVAPSGEVFSNSSSCELTGSGSWNNMLKLGNKSPNGISDYPKIRVTVTRDQPRRVLPSFGFTLNSEGCNRRPGGRRHSKGNPESSLMWKPQEQAVTEMISEESGKGLRRPHCTVEEGVQKEEREKYRKLLERLKESGHGNSVCPVTSNYHSSQRSQMDTLKTKGWGEEQNHGVKTTQFVPKQYRLVETRGPLCSLRSEKRCSKGKITDTETMVGIRFENESRRGYQLEPDLSEEVSARLRLGSGSNGLLRRKVSIIETKEKNCSGKERDRRTDDLLELTEDMEKEISNALGHGPQDEILSSAFKLRITRGDIQTLKNYHWLNDEVINFYMNLLVERNKKQGYPALHVFSTFFYPKLKSGGYQAVKRWTKGVNLFEQEIILVPIHRKVHWSLVVIDLRKKCLKYLDSMGQKGHRICEILLQYLQDESKTKRNSDLNLLEWTHHSMKPHEIPQQLNGSDCGMFTCKYADYISRDKPITFTQHQMPLFRKKMVWEILHQQLL
